Assay results from the supplement of paper PMC10849652.
The list shows a part of the results.

Amino acid sequences for entries named in this document (tags omitted). A change or cut given only in a name is not applied to a line headed by its entry.
UniProt P12036: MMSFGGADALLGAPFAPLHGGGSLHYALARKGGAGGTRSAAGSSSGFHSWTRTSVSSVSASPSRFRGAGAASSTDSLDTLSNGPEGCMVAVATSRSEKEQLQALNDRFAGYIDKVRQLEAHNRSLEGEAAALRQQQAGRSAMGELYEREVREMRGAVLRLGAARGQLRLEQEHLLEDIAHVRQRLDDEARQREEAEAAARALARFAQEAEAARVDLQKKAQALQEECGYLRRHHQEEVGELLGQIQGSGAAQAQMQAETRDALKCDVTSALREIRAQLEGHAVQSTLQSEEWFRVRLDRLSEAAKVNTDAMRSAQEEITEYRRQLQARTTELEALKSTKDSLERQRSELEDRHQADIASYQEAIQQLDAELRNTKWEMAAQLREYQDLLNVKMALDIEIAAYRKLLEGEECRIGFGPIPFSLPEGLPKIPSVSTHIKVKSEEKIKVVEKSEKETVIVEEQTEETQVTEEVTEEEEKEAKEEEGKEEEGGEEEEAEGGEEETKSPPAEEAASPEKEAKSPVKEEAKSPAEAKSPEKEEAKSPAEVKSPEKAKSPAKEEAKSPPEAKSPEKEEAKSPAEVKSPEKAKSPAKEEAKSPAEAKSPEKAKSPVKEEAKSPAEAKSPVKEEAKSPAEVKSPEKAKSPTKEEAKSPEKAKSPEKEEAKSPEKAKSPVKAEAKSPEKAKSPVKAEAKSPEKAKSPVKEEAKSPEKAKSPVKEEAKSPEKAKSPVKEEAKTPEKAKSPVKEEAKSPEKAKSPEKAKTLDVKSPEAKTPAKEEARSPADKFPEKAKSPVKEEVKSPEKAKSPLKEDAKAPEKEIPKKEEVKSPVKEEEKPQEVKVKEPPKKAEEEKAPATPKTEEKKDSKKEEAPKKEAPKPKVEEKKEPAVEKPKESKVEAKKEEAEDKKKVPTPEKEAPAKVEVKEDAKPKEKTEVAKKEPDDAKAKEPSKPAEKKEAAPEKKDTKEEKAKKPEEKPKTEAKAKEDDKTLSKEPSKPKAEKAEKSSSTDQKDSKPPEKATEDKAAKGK
UniProt Q5JS37: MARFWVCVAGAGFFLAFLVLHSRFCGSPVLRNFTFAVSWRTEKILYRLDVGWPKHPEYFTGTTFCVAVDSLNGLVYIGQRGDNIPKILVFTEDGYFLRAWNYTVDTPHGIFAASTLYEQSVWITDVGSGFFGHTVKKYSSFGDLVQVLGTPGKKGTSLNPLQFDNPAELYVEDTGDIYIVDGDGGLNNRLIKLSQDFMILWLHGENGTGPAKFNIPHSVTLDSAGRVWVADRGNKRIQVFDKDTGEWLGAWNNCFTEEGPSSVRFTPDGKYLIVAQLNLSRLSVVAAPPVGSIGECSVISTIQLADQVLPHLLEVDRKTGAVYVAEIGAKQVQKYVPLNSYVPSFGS
UniProt Q9Y2I1: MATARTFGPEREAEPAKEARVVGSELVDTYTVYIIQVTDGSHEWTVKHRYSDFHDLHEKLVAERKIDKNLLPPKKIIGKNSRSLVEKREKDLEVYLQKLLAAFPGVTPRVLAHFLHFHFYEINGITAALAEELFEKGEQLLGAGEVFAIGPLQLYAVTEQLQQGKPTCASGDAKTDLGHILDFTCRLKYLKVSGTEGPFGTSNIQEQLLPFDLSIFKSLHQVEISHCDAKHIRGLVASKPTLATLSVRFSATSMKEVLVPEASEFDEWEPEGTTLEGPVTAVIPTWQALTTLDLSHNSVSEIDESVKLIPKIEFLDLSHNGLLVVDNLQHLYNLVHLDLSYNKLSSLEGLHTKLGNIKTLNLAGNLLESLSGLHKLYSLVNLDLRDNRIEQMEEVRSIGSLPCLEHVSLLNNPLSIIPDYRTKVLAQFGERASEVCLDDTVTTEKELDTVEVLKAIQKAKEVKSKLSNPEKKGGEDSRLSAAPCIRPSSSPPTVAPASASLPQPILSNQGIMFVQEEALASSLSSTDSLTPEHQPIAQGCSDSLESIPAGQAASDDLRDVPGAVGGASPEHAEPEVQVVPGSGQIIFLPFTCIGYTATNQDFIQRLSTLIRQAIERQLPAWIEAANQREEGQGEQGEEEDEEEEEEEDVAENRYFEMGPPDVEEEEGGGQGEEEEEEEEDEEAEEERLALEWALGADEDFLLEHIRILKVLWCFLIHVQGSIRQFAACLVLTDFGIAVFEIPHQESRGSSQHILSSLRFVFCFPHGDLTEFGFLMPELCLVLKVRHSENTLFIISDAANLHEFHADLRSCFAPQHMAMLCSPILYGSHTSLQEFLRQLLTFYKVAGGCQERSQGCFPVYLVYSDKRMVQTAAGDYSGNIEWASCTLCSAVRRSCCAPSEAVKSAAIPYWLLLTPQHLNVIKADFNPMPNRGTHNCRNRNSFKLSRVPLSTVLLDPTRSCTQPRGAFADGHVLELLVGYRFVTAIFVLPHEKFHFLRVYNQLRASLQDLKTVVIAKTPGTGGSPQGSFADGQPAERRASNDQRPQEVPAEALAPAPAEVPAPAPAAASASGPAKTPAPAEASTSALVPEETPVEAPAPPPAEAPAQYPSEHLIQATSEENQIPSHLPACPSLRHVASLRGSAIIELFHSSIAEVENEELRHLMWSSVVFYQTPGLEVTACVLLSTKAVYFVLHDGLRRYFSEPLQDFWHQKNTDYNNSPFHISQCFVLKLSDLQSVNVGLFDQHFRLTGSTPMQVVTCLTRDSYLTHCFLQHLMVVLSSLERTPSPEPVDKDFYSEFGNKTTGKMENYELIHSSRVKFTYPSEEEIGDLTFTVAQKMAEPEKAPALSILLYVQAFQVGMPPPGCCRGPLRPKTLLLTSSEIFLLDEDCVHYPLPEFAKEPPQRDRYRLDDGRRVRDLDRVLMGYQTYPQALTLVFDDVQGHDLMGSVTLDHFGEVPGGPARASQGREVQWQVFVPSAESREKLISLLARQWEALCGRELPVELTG
UniProt P30414: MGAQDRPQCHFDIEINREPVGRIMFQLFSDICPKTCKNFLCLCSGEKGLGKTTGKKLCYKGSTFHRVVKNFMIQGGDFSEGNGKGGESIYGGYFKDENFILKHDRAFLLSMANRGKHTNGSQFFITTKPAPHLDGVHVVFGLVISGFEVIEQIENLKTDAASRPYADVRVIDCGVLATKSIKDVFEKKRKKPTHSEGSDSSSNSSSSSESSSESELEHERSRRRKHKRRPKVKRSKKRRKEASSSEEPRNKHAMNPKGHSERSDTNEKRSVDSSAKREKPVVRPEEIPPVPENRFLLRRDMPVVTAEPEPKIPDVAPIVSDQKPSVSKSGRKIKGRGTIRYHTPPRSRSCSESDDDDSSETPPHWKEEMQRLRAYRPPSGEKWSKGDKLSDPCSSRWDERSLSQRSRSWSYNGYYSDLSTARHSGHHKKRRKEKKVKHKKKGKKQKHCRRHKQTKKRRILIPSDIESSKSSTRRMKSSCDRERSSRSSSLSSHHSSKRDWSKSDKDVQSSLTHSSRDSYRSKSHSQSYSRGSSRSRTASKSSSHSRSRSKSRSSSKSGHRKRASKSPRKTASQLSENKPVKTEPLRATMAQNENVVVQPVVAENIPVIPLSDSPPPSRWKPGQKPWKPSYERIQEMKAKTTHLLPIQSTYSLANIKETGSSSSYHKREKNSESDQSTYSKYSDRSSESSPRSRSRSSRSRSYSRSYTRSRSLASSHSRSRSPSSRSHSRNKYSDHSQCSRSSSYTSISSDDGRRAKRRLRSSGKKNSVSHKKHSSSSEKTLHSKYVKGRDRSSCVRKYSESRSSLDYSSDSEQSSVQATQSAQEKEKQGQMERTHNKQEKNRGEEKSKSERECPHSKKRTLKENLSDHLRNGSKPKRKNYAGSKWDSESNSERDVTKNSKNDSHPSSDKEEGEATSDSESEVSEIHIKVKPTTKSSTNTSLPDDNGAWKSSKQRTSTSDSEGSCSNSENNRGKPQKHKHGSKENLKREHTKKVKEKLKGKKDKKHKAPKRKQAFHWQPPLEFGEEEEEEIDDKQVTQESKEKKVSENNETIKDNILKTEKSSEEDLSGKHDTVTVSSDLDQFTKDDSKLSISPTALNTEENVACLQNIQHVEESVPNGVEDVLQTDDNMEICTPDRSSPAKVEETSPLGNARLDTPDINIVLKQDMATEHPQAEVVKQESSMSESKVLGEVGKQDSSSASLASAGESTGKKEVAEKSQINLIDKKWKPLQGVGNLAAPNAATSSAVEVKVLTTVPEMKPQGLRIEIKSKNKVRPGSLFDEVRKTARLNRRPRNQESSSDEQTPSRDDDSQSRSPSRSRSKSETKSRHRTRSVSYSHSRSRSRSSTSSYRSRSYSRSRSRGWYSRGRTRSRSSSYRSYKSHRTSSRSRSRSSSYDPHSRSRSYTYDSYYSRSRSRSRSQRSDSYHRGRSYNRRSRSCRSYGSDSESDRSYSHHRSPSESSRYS
UniProt Q0ZGT2: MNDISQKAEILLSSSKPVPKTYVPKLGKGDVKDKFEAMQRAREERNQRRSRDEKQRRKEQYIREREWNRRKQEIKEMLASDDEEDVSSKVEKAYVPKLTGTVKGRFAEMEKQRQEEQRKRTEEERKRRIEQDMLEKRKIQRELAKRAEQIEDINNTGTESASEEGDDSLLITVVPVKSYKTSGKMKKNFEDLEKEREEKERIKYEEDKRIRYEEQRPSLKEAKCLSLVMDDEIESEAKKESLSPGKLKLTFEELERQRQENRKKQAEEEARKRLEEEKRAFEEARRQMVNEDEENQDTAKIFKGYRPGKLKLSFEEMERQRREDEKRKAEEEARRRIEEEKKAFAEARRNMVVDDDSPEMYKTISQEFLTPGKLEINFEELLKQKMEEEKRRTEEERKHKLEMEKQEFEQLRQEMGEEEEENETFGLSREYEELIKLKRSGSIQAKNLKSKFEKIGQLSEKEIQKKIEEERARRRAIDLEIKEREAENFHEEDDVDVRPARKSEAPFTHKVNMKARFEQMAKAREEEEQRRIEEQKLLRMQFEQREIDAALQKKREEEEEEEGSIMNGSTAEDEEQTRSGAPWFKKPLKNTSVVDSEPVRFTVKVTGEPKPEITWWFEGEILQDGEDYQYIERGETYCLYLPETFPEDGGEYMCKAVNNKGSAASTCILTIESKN
UniProt Q9UFN0: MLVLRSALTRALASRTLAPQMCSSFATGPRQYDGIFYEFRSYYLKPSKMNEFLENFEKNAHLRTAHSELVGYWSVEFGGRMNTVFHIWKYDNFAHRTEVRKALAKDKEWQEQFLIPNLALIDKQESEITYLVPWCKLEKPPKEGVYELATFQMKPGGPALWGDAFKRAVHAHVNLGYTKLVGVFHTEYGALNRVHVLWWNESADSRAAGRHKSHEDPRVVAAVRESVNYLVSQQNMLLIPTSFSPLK
UniProt Q96PY6: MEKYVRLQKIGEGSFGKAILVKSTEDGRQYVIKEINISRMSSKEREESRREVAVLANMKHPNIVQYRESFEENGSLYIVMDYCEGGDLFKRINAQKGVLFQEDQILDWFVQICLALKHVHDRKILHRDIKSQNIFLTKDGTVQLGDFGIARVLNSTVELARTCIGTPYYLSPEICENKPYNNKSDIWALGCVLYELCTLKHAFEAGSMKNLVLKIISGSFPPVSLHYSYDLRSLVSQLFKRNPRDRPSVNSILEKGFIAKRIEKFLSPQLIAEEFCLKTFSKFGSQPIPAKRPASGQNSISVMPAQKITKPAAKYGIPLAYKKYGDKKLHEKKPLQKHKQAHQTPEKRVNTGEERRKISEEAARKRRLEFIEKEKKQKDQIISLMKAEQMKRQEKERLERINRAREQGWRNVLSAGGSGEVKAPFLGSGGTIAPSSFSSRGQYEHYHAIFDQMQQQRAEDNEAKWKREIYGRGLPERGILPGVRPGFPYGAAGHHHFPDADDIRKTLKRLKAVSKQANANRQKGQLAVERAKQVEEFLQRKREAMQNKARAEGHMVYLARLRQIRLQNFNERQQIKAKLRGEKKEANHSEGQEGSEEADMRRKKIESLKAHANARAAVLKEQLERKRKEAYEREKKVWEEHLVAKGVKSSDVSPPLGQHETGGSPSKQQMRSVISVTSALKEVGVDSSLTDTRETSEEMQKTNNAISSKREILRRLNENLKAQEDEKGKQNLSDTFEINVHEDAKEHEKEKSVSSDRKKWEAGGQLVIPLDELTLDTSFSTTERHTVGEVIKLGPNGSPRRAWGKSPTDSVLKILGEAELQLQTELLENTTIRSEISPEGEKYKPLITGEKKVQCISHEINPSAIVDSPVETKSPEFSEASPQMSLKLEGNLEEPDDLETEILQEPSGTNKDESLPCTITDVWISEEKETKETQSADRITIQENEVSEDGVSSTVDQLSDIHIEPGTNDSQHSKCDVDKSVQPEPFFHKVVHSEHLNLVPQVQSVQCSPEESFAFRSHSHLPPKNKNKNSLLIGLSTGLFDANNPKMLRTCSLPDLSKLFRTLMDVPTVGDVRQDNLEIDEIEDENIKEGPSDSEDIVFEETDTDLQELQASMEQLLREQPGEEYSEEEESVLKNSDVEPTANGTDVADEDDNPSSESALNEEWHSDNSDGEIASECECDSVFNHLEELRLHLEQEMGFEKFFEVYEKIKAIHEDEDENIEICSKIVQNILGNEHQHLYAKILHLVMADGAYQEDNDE
UniProt O43677, whole entry, looked up: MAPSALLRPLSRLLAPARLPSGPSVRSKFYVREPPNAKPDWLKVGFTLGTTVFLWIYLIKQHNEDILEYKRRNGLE

What follows are targets tested with NCC(=O)Nc1ccc(-n2nc(C(F)(F)F)cc2-c2ccc3c(ccc4ccccc43)c2)cc1 (assay: log2 fold change, soluble protein after heating vs DMSO (PISA); higher = thermal stabilisation; K562 lysate, 10 uM; active = over 0.2 and 3.5 SD of the protein, either way, in both replicates (recomputed)).
How it was run: (§1)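 K562 pellets were dounce-homogenised in PBS pH 7.4 containing 1 mM MgCl2, and the crude extract, at 1 mg/mL protein, was exposed to 10 μM compound for 30 min. Aliquots were heated for 3 min across 48°C-58°C, pooled, brought to 0.5% NP-40 at 4°C and spun at 21,000xg for 90 min, with the supernatant taken as soluble protein. TMTpro 16plex LC-MS/MS with equalised channel sums quantified that protein. Values are log-two fold changes in thermal stability relative to solvent controls, taken from duplicates.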

| Target | log2 fold change |
| --- | --- |
| NDST1 (UniProt P52848) | inactive: -0.036 |
| NEU3 isoform 2 (UniProt Q9UQ49) | inactive: -0.009 |
| NDRG2 isoform 6 (UniProt Q9UN36) | inactive: -0.029 |
| NEK5 (UniProt Q6P3R8) | inactive: 0.038 |
| NDUFV3 (UniProt P56181) | inactive: 0.061 |
| NKIRAS1 (UniProt Q9NYS0) | inactive: 0.091 |
| NEFH (UniProt P12036) | inactive: 0.024 |
| NDUFS6 (UniProt O75380) | inactive: -0.001 |
| NFE2 (UniProt Q16621) | inactive: -0.017 |
| NIF3L1 (UniProt Q9GZT8) | inactive: 0.033 |
| NFU1 (UniProt Q9UMS0) | inactive: 0.02 |
| NHLRC3 (UniProt Q5JS37) | inactive: -0.085 |
| NISCH (UniProt Q9Y2I1) | inactive: -0.006 |
| NDUFA7 (UniProt O95182) | inactive: -0.049 |
| NKTR (UniProt P30414) | inactive: 0.068 |
| NFATC4 isoform 2 (UniProt Q14934) | inactive: 0.207 |
| NEXN (UniProt Q0ZGT2) | inactive: 0.144 |
| NDUFS3 (UniProt O75489) | inactive: 0.019 |
| NIPSNAP3B (UniProt Q9BS92) | inactive: -0.083 |
| NIPSNAP3A (UniProt Q9UFN0) | inactive: 0.03 |
| NEK1 isoform 3 (UniProt Q96PY6) | inactive: 0.003 |
| NGLY1 (UniProt Q96IV0) | inactive: -0.014 |
| NDUFB3 (UniProt O43676) | inactive: 0.008 |
| NLRX1 (UniProt Q86UT6) | inactive: -0.325 |

The targets below were run with O=C(CCCCCCC(=O)Nc1ccccc1)NO [vorinostat] in the same assay as above.
How it was run: as §1

| Target | log2 fold change |
| --- | --- |
| NDST1 (UniProt P52848) | inactive: 0.202 |
| NDUFAF6 (UniProt Q330K2) | inactive: -0.053 |
| NEU3 isoform 2 (UniProt Q9UQ49) | inactive: -0.137 |
| NFYC isoform 3 (UniProt Q13952) | inactive: 0.15 |
| NDUFC1 (UniProt O43677) | inactive: 0.095 |
| NIN isoform 7 (UniProt Q8N4C6) | inactive: 0.089 |
| NGDN (UniProt Q8NEJ9) | inactive: -0.293 |
| NEPRO (UniProt Q6NW34) | inactive: 0.012 |
| NDRG2 isoform 6 (UniProt Q9UN36) | inactive: 0.037 |
| NEIL2 (UniProt Q969S2) | inactive: 0.055 |
| NDUFV3 (UniProt P56181) | inactive: 0.097 |
| NLRP1 (UniProt Q9C000) | inactive: 0.241 |
| NKIRAS1 (UniProt Q9NYS0) | inactive: -0.126 |
| NEFH (UniProt P12036) | inactive: 0.029 |
| NDUFS6 (UniProt O75380) | inactive: 0.089 |
| NFE2 (UniProt Q16621) | inactive: 0.043 |

| Target | log2 fold change |
| --- | --- |
| NFRKB isoform 2 (UniProt Q6P4R8) | inactive: -0.182 |
| NIF3L1 (UniProt Q9GZT8) | inactive: 0.116 |
| NKAPD1 isoform 2 (UniProt Q6ZUT1) | inactive: 0.079 |
| NFU1 (UniProt Q9UMS0) | inactive: 0.052 |
| NHLRC3 (UniProt Q5JS37) | inactive: -0.015 |
| NISCH (UniProt Q9Y2I1) | inactive: -0.127 |
| NDUFA7 (UniProt O95182) | inactive: 0.051 |
| NKTR (UniProt P30414) | inactive: -0.029 |
| NEXN (UniProt Q0ZGT2) | inactive: -0.335 |
| NDUFS3 (UniProt O75489) | inactive: 0.088 |
| NIPSNAP3B (UniProt Q9BS92) | inactive: 0.129 |
| NIPSNAP3A (UniProt Q9UFN0) | inactive: 0.136 |
| NEK1 isoform 3 (UniProt Q96PY6) | inactive: 0.066 |
| NGLY1 (UniProt Q96IV0) | active: -0.29 |
| NDUFB3 (UniProt O43676) | inactive: 0.131 |
| NLRX1 (UniProt Q86UT6) | inactive: 0.226 |

Each target was assayed with O=C(O)c1ccc2c(c1)nc(Nc1cccc(Cl)c1)c1ccncc12 [silmitasertib] in the same assay as above.
How it was run: as §1

| Target | log2 fold change |
| --- | --- |
| NDST1 (UniProt P52848) | inactive: -0.055 |
| NDUFAF6 (UniProt Q330K2) | inactive: 0.102 |
| NEU3 isoform 2 (UniProt Q9UQ49) | inactive: 0.089 |
| NFYC isoform 3 (UniProt Q13952) | inactive: 0.363 |
| NDUFC1 (UniProt O43677) | inactive: 0.101 |
| NIN isoform 7 (UniProt Q8N4C6) | inactive: 0.07 |
| NGDN (UniProt Q8NEJ9) | inactive: 0.056 |
| NEPRO (UniProt Q6NW34) | inactive: 0.03 |
| NDRG2 isoform 6 (UniProt Q9UN36) | inactive: 0.083 |
| NEIL2 (UniProt Q969S2) | inactive: 0.073 |
| NDUFV3 (UniProt P56181) | inactive: -0.08 |
| NLRP1 (UniProt Q9C000) | inactive: -1.56 |
| NKIRAS1 (UniProt Q9NYS0) | inactive: -0.057 |
| NEFH (UniProt P12036) | inactive: -0.005 |
| NDUFS6 (UniProt O75380) | inactive: 0.009 |
| NFE2 (UniProt Q16621) | inactive: -0.017 |

| Target | log2 fold change |
| --- | --- |
| NFRKB isoform 2 (UniProt Q6P4R8) | inactive: -0.014 |
| NIF3L1 (UniProt Q9GZT8) | inactive: -0.045 |
| NKAPD1 isoform 2 (UniProt Q6ZUT1) | inactive: 0.034 |
| NFU1 (UniProt Q9UMS0) | inactive: 0.002 |
| NHLRC3 (UniProt Q5JS37) | inactive: 0.001 |
| NISCH (UniProt Q9Y2I1) | inactive: -0.024 |
| NDUFA7 (UniProt O95182) | inactive: 0.013 |
| NKTR (UniProt P30414) | inactive: 0.094 |
| NEXN (UniProt Q0ZGT2) | inactive: -0.038 |
| NDUFS3 (UniProt O75489) | inactive: 0.019 |
| NIPSNAP3B (UniProt Q9BS92) | inactive: -0.047 |
| NIPSNAP3A (UniProt Q9UFN0) | inactive: -0.061 |
| NEK1 isoform 3 (UniProt Q96PY6) | inactive: -0.052 |
| NGLY1 (UniProt Q96IV0) | inactive: 0.041 |
| NDUFB3 (UniProt O43676) | inactive: -0.002 |
| NLRX1 (UniProt Q86UT6) | inactive: -0.231 |
